Test system: Pendrin WT and KO mice
Test: Secretin-induced urine alkalisation and urine HCO3− excretion in anaesthetized pendrin WT/KO mice
Type: in vivo, mouse
Conditions: 10 μg/25 g BW i.p.
Experimental: Induction of anaesthesia was performed with i.p. injection of […] of a ketamine-xylazine mix (10 mg/ml and 1 mg/ml). An i.v. access was obtained by cannulation of one tail vein and the animals were kept in anaesthesia by a continuous rate infusion (CRI) corresponding to half of the induction dose pr. hour. Mice were infused with a solution containing 145 mM NaCl at pH 7.4 with a perfusion rate of 0.1 ml h^−1 via a syringe pump (Model 33 Twin syringe pump, Harvard Apparatus, USA).
Bladder catheterization was introduced and urine was collected every 5 minutes. Urinary pH was measured continuously throughout the experiment by placement of a micro pH electrode (pH-200, Unisense, Aarhus, DK) in the outflow of the catheter and the reference electrode was placed into the suprapubic operation wound (see FIG. 7A). Following a 30-min. control period, mice were injected intraperitoneally with either secretin (10 μg/25 g BW) or saline.
The urine was collected and pooled for 30 minutes allowing measurement of mean [HCO3^−] in the time periods 0-30, 30-60 and 60-90 after starting the experiment. In experiments with too low urine output, urine was pooled to allow analysis of [HCO3^−] before and after secretin application. Measurements were performed by a Corning 960 analyser (Savory et al. 1978) and calibrated to small volume samples of 50 μl or alternatively by a custom built infrared CO2-sensor based system for smaller volume samples (Trepiccione et al. 2017) (10-40 μl).
All values are presented as mean values ±standard error of mean (SEM). Due to a low number of observations in each series, n=7 in most, we were not able to determine whether the data followed a Gaussian distribution. Therefore, two-tailed Wilcoxon matched pairs signed rank test, in paired data, and two-tailed Mann-Whitney test, in unpaired data, were performed to test for significance.

secretin
time of maximal urine alkalisation after secretin application (WT mice): 20 to 30 min | lag time to urinary alkalization (pendrin WT mice): approximately 5 minutes | time to peak mean alkalisation (pendrin WT mice): ~25 min
